Measurements as given in the supplement of paper PMC12823440, “Inhibitors supercharge kinase turnover through native proteolytic circuits” (Nature, 2025).
Where a name gives a salt, the structure may show the parent alone. The list shows a part of the results. The calls rarely recur for the same compound in another form.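 Kinases, fused to nanoluciferase, were expressed in K562 cells; luminescence was measured every 4 h from 2 to 18 h as percent of control (DMSO = 100%, positive control = 0%). A time point is decreased if signal falls significantly (2 sigma). Hits were called by the authors by a rule that is not shown; the count of time points alone does not decide it.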

Chains of the proteins cited; added tags and fusions are not shown. Lines headed by an entry give the natural chain unless they say otherwise; changes in a name come on top.
UniProt Q9UM73: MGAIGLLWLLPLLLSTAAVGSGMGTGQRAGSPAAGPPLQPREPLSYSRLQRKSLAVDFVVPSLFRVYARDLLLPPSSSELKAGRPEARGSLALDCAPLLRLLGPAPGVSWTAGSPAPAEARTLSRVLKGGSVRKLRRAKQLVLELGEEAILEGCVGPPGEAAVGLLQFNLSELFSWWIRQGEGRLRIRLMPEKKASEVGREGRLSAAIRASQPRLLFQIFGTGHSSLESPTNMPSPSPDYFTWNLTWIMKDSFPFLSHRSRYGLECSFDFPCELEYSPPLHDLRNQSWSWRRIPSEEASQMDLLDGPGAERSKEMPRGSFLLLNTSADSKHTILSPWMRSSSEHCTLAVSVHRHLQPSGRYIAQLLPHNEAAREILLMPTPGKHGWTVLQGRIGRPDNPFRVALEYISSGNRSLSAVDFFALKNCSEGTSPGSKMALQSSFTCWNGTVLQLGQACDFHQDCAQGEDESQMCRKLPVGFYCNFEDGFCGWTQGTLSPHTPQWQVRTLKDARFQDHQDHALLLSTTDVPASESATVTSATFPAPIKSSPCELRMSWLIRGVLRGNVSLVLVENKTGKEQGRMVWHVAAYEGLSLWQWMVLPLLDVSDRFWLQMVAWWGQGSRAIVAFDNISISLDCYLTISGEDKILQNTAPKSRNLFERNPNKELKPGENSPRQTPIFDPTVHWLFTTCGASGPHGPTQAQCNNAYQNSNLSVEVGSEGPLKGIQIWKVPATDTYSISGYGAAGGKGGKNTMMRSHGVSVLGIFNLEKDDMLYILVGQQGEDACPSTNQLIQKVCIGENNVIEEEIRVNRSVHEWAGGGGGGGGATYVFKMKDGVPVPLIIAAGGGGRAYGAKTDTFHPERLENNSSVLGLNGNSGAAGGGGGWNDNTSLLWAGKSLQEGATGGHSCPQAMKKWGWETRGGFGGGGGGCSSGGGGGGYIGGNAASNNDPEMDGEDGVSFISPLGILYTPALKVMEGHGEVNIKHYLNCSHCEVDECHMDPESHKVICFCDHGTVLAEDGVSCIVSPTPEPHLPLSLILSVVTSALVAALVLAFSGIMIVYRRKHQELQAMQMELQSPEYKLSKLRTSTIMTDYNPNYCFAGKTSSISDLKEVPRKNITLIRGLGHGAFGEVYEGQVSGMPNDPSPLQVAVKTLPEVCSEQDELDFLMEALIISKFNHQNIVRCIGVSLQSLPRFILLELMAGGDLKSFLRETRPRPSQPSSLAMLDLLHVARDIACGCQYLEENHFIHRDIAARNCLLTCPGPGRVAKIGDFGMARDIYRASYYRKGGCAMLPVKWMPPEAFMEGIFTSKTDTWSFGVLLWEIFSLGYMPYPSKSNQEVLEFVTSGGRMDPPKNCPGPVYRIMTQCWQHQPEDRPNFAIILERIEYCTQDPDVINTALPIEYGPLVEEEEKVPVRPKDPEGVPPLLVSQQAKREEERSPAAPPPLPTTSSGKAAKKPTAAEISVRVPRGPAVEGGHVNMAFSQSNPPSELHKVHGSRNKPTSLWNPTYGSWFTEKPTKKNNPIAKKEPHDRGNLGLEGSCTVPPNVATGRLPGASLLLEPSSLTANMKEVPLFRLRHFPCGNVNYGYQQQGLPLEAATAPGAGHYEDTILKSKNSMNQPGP
UniProt P10398: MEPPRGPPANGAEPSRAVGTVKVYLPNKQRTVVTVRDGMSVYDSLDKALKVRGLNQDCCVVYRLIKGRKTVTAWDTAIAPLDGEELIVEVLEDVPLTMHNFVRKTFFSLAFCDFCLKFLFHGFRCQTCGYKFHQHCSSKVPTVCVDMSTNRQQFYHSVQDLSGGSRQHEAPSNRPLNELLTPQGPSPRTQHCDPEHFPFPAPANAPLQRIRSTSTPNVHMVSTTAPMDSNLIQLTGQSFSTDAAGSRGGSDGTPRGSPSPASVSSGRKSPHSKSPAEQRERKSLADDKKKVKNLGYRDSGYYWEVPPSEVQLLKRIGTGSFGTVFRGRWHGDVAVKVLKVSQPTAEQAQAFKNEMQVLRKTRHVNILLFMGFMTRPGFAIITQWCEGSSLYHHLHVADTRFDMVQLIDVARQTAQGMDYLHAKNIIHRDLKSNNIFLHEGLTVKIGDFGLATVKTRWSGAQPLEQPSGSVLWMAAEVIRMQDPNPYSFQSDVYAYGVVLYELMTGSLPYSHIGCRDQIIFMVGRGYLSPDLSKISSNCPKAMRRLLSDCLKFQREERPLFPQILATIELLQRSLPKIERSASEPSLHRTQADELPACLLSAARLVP
UniProt O14965: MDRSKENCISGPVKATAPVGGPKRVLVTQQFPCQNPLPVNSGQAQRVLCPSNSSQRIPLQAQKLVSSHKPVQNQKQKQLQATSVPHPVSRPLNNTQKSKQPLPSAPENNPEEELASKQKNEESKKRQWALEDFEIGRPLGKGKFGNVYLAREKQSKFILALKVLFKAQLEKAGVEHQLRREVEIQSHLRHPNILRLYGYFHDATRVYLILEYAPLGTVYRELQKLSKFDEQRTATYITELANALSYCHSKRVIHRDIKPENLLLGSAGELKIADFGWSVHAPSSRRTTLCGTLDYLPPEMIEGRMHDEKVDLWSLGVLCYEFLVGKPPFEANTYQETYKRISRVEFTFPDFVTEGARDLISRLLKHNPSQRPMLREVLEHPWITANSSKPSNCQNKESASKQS
UniProt Q96GD4, whole entry: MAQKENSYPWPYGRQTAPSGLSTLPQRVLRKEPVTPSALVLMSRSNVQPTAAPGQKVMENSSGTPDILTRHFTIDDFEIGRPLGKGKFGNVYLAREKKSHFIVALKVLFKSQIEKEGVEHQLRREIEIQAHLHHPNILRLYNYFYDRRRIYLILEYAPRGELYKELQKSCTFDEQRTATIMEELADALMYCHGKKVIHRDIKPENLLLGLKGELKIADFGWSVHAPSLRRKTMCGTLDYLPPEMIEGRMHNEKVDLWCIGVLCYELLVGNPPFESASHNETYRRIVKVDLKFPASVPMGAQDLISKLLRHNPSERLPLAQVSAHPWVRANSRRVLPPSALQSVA
UniProt Q9UQB9: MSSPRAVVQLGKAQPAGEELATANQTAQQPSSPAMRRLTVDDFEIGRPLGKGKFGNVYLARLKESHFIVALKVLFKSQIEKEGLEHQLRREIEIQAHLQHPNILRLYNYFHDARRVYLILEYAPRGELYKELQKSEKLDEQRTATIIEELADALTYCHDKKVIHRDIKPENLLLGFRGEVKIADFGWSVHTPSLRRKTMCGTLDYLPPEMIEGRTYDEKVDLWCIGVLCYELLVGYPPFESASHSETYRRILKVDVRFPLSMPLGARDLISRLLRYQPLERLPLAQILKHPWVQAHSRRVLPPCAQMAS
UniProt P51451: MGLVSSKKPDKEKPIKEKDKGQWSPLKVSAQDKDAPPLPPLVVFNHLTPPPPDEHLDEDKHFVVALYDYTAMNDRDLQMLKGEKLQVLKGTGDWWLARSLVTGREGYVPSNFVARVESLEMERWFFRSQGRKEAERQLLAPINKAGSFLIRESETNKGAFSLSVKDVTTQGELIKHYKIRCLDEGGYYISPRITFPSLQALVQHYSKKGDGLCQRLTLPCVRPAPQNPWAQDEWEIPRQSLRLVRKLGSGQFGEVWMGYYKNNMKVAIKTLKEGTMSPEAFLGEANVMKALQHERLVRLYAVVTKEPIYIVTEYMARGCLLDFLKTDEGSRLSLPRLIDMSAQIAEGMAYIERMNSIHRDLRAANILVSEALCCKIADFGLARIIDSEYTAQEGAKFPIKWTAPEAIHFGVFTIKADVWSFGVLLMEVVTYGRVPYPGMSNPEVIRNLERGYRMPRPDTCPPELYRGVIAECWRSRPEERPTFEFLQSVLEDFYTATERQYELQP
UniProt P51813: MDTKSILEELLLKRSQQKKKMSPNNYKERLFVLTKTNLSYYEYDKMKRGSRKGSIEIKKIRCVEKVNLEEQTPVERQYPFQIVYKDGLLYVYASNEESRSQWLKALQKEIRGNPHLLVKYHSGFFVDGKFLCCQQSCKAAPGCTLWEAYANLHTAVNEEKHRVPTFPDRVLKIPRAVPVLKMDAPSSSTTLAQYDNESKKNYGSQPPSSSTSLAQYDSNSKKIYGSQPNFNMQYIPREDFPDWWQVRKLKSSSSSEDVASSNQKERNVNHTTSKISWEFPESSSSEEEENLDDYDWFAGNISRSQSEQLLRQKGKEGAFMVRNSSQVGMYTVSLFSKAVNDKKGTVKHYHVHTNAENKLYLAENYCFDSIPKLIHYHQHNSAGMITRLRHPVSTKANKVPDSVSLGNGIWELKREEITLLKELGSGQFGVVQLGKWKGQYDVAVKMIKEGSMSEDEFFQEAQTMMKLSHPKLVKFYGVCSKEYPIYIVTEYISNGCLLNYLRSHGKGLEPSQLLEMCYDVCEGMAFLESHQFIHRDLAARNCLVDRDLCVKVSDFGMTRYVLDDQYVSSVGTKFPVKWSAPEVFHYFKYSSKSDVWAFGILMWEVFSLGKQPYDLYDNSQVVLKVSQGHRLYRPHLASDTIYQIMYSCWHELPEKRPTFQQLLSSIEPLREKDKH
UniProt P15056, whole entry, looked up: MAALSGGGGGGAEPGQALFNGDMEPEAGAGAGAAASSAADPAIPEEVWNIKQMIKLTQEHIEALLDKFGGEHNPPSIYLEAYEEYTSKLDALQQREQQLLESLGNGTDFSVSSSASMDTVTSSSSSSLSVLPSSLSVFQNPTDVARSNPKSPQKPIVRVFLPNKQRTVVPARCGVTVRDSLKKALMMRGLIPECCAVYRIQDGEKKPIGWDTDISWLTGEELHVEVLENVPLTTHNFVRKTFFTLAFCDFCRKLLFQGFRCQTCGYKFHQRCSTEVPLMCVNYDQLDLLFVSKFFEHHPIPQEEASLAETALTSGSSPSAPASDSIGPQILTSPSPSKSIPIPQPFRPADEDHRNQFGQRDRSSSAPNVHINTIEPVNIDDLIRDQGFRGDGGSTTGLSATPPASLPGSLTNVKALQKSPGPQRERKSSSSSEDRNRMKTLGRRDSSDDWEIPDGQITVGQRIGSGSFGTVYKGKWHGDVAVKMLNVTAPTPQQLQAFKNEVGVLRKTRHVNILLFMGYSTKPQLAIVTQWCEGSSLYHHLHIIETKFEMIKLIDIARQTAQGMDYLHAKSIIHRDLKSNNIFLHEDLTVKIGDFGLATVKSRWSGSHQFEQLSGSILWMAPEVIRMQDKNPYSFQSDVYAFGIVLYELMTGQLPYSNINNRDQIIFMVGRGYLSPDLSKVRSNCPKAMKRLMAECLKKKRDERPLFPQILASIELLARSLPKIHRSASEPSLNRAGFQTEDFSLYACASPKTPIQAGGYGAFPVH
UniProt Q06187: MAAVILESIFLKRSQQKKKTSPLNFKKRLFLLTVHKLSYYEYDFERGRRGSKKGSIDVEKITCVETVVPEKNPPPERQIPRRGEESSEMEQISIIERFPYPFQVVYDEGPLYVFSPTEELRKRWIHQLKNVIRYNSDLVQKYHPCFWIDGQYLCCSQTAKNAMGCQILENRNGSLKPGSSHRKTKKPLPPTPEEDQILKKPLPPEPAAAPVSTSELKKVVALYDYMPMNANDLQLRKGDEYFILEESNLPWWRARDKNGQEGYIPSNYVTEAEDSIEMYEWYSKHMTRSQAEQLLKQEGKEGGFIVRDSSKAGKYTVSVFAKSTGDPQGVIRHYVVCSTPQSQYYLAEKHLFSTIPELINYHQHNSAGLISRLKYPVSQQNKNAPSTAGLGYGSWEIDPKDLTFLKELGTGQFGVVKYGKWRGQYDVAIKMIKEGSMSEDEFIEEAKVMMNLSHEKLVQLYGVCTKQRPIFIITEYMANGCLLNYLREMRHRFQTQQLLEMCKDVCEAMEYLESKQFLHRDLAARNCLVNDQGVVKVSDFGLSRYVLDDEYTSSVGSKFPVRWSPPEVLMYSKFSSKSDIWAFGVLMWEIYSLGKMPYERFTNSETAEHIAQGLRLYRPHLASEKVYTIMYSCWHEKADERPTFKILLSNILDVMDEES

How the values were obtained:
Assay in all cases: number of time points (of 5) at which kinase-Nluc abundance scored as decreased, DMSO-normalised (count); higher = more persistent destabilization
Conditions in all cases: K562; 2-18 h
ALK = ALK (UniProt Q9UM73)
ARAF = ARAF (UniProt P10398)
AURKA = AURKA (UniProt O14965)
AURKB = AURKB (UniProt Q96GD4)
AURKC = AURKC (UniProt Q9UQB9)
BLK = BLK (UniProt P51451)
BMX = BMX (UniProt P51813)
BRAF = BRAF (UniProt P15056)
BRAF_V600E = test system: BRAF_V600E
BTK = BTK (UniProt Q06187)

Measured: number of time points

Cn1ncc2cc(-c3cnc(N)c(Cl)c3N3CCC4(CCNC4=O)CC3)ccc21 (10 µM)
0: all assays above

NC(=O)c1cnc2[nH]ccc2c1N[C@@H]1[C@@H]2CC3C[C@H]1C[C@@](O)(C3)C2 [Peficitinib] (10 µM)
4: BRAF_V600E
3: BMX
0: all other assays above

CC(C)c1cccc(C(C)C)c1N1C(=O)c2ccc(N)cc2C1=O (2.5 µM)
0: all assays above

COc1cc(/C=C/C(=O)N2CCC=CC2=O)cc(OC)c1OC [Piperlongumine] (2.5 µM)
4: BRAF_V600E
0: all other assays above

COc1ncccc1-c1cnn2ccc(N3CCN(C(=O)OC(C)C)CC3)nc12 (10 µM)
0: all assays above

CN(C)CCC=C1c2ccccc2CCc2ccccc21 [Amitriptyline (hydrochloride)] (2.5 µM)
0: all assays above

CNc1cc(Nc2cccn(-c3ccccn3)c2=O)nn2c(C(=O)N[C@@H]3C[C@@H]3F)cnc12 (2.5 µM)
0: all assays above

CCCNC(=O)Nc1ccc(Oc2ncnc3cc(OC)c(OC)cc23)cc1Cl (2.5 µM)
0: all assays above

O=C1NC(=O)/C(=C/c2ccc3nccc(-c4ccncc4)c3c2)S1 (10 µM)
1: AURKA | BRAF
3: BMX
0: all other assays above

Quoted at random: two entries already listed
CNc1cc(Nc2cccn(-c3ccccn3)c2=O)nn2c(C(=O)N[C@@H]3C[C@@H]3F)cnc12 (2.5 µM)
0: all assays above

Cn1ncc2cc(-c3cnc(N)c(Cl)c3N3CCC4(CCNC4=O)CC3)ccc21 (10 µM)
0: all assays above

Additional records follow:

Cn1cc2cc(C(F)(F)c3nnc4ccc(-c5cnn(C6CC6)c5)nn34)c(F)cc2n1 [Bozitinib] (10 µM)
0: all assays above

CC(C)(O)[C@H]1CC[C@H](Nc2ccc3ncc(-c4cccc(C(F)(F)F)c4)n3n2)CC1 (10 µM)
0: all assays above

Cc1cnc(-c2ccc(-c3ccc(NC(=O)Nc4cccc(C(F)(F)F)c4)cc3F)c3c2C(=O)NC3)[nH]1 (10 µM)
2: BMX | BRAF
0: all other assays above

CN1CC[C@@H](c2c(O)cc(O)c3c(=O)cc(-c4ccc(C(F)(F)F)cc4Cl)oc23)[C@@H]1CO [Voruciclib (hydrochloride)] (10 µM)
0: all assays above

CCOC(=O)N1C/C(=C/c2ccccc2F)C(=O)/C(=C\c2ccccc2F)C1 (2.5 µM)
0: all assays above

Cc1ccc(NC(=O)c2ccc(CN(CCN(C)C)C(=O)c3cccnc3)cc2)cc1Nc1nccc(-c2cccnc2)n1 [PDGFRα kinase inhibitor 1] (10 µM)
0: all assays above

c1cc(NC2CCNCC2)nc(-c2cnc3ccccn23)c1 [IRAK inhibitor 1] (10 µM)
0: all assays above

C[C@@H]1O[C@@H](O[C@@H]2[C@@H](O)[C@H](OCCc3ccc(O)c(O)c3)O[C@H](CO)[C@H]2OC(=O)/C=C/c2ccc(O)c(O)c2)[C@H](O)[C@H](O)[C@H]1O [Verbascoside] (10 µM)
0: all assays above

COc1ccc(S(=O)(=O)NCc2ccc(C(=O)NCCc3ccc(Cl)cn3)cc2)cc1 (10 µM)
0: all assays above

COc1cc2ncnc(Nc3ccccc3)c2cc1OC (10 µM)
0: all assays above

NC(=O)N1CCC(CC(=O)N2CCC([C@H]3c4ncc(Br)cc4CCc4cc(Cl)cc(Br)c43)CC2)CC1 [Lonafarnib] (2.5 µM)
0: all assays above

Cc1cc(C)nc(NS(=O)(=O)c2ccc(NC(=S)NC(=O)COc3ccc(Br)cc3Cl)cc2)n1 (2.5 µM)
0: all assays above

O=C(CNc1cccc(Cl)c1)NC1CCCN(c2ncnc3[nH]ccc23)C1 (stereo not given) (10 µM)
0: all assays above

C[C@@H]1CN(c2cc(-c3n[nH]c4ccc(OC5(C)CC5)cc34)ncn2)C[C@H](C)O1 (10 µM)
0: all assays above

Nc1ncnc2c1c(COc1cccc(Cl)c1)nn2C1CCOCC1 (10 µM)
0: all assays above

CCN(CC)c1cc2oc(=O)c(-c3nc4ccccc4o3)cc2cc1C (2.5 µM)
2: BMX
1: BRAF | BTK
0: all other assays above

O=C(N[C@@H](C1CC1)C(F)(F)F)c1cc(-c2cnn3cc(-c4ccc(F)cc4)cnc23)cs1 (10 µM)
0: all assays above

COc1ccccc1C(=O)/C=C/c1ccccc1C(=O)O (10 µM)
0: all assays above

N[C@@H](CCC(=O)O)C(=O)N[C@@H](Cc1c[nH]c2ccccc12)C(=O)O [Oglufanide] (10 µM)
0: all assays above

C#Cc1cccc(Nc2ncnc3cc(OC)c(OCCCCCCC(=O)NO)cc23)c1 (2.5 µM)
0: all assays above

CCCCCCCCCCCCCCCCOP(=O)([O-])OCC[N+](C)(C)C [Miltefosine] (10 µM)
0: all assays above

Cc1ccc(C(=O)Nc2sc(Nc3ccccc3)nc2C(N)=O)cc1 (10 µM)
0: all assays above

N#Cc1ccnc(Nc2cc(C3CCN(C4COC4)CC3)cc(N3CCC(F)(F)C3)n2)c1 (2.5 µM)
0: all assays above

Cc1cc2sc(NC(=O)Cc3ccccc3)nc2cc1Cl (10 µM)
0: all assays above

Cc1nc(-c2cnn(C)c2)nc2c1[nH]c1ncc(-c3ccc(N4CCN(C)CC4)cc3)cc12 [GNE 220 (hydrochloride)] (10 µM)
0: all assays above
